In publication PMC10709431:
These are yes or no findings as the source states them, for the method shown. In cells and extracts the contact can be indirect. Some entries that bind do so weakly or less than the wild type.

Chains of the proteins cited; added tags and fusions are not shown.
UniProt Q13131: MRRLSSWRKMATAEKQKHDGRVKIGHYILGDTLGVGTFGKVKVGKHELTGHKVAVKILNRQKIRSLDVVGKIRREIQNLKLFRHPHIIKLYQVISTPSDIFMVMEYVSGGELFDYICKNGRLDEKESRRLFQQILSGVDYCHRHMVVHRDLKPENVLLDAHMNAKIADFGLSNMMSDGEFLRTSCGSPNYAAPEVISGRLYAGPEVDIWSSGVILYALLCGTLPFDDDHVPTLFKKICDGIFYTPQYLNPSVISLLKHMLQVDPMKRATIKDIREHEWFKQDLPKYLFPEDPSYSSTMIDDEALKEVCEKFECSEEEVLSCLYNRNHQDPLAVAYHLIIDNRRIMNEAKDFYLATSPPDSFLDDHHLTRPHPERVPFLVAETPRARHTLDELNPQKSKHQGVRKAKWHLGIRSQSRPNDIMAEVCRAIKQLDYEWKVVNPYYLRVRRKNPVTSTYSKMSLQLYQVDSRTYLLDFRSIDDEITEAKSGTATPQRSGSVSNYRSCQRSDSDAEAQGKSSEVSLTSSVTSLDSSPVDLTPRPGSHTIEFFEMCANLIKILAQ
UniProt Q06210: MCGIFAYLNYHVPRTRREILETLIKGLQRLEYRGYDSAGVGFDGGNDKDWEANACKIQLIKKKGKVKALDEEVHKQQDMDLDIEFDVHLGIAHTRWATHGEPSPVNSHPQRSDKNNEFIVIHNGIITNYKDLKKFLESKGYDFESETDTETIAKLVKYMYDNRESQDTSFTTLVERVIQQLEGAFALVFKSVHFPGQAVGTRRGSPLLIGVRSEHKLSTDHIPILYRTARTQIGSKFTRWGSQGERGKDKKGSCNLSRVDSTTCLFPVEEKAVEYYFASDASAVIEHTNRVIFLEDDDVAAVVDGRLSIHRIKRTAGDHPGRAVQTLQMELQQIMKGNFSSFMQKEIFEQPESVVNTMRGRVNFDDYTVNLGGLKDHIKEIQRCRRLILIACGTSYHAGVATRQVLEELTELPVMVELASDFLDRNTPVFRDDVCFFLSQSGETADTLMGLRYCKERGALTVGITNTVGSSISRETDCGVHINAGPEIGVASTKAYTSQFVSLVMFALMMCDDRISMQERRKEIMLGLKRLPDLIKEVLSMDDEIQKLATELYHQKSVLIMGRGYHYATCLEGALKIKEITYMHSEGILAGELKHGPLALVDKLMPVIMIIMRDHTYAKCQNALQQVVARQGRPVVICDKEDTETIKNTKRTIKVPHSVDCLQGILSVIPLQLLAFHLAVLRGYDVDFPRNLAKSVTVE

Molecular target: AMPKα1 in experiments shown only in supplementary figures (endogenous or transfected not stated) (UniProt Q13131)
Assay: co-IP; co-IP of the AMPK complex (Fig. S4n); bait and constructs not shown; A375 cells with or without MMAE in Fig. S4o

## glutamine fructose-6-phosphate aminotransferase 1 (GFAT1) (from UniProt Q06210 1-699) (enzyme)
  binding: binds
